Results are given in words; binding and its absence hold for the method and conditions named. Binding seen in cells or lysates may run through a third protein. Some binding calls cover weakened binding; strength is not graded here. Tags and fused reporters may be left off the sequences shown.

Amino acid sequences for entries named in this document (tags omitted). Residues count along the entry.
UniProt P38646, residues 47-679: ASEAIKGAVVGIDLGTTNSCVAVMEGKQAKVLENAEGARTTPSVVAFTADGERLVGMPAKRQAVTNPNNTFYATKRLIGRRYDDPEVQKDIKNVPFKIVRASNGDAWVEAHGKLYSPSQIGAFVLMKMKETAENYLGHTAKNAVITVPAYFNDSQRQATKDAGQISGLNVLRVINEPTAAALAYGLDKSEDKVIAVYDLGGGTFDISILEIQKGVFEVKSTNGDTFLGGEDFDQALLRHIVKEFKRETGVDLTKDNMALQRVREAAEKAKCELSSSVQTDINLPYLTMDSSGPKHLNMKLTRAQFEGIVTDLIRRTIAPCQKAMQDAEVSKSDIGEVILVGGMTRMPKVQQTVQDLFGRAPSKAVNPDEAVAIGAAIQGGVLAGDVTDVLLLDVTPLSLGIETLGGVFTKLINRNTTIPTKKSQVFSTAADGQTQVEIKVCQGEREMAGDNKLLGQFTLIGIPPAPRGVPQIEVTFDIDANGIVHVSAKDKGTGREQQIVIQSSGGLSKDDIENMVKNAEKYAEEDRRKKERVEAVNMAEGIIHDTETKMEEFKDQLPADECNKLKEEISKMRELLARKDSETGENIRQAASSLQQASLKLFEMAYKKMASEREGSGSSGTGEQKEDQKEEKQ

This test has as its target T1, HA-VDAC2-WT (pCDNA3) (UniProt P45880).
T1 sequence: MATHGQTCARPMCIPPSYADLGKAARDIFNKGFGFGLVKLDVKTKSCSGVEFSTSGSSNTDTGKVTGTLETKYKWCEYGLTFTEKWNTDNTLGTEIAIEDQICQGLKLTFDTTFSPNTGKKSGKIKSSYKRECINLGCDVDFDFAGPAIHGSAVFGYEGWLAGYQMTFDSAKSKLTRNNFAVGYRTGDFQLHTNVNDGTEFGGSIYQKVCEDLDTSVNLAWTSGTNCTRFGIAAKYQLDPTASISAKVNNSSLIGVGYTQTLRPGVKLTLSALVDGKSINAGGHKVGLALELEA
Nature of the test: co-IP; HA-IP (anti-HA agarose) from HEK293T cells transfected with the indicated constructs, immunoblot; Figures 3Q, 4H, 4J. (In general: A western blot detects proteins with antibodies after separation by electrophoresis.)

For “GRP75 (construct of the experiment not stated) (from UniProt P38646 47-679)”, the binding result was “binds”.

(Values after PMC9875608.)
